## Percent effect of library compounds

Mtb cholesterol medium: 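Whole-cell growth test on Mycobacterium tuberculosis, read after 4 days in a medium based on cholesterol and the lipid DPPC; the read-out is not stated. Compounds at 50 µM. Higher reads as more growth inhibition (inferred: compounds with an IC50 in retests scored well above the rest). About 69,000 compounds were tested under these conditions; 0.54% (about 370) showed 50% or more at least once.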
Mtb glucose medium: 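Growth of Mycobacterium tuberculosis over 3 days (7H9 medium with glucose and tyloxapol); the read-out is not stated. Concentration: 50 µM. The record gives no direction; compounds that gave an IC50 in retests scored well above the rest, so higher reads as more growth inhibition. Size under these conditions: about 69,000 compounds, about 760 of them at 50% or above in at least one test.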

Values are the deposited “Percent Effect”, in %.
The record does not define 0% and 100%; most values in the screen are far below 50% and negative numbers occur (in some assays of this library far below -100).
The compounds are a random part of those screened.
Two or more numbers in one place are separate tests of the same structure; such repeats can differ widely.

{"smiles": "COc1ccc(-c2nc(CN3CCc4c(ncn4C)C3)cs2)cc1", "Mtb cholesterol medium": -4.219, "Mtb glucose medium": 25.74}
{"smiles": "COc1ccccc1CCNC(=O)NCC(=O)Nc1cccnc1", "Mtb cholesterol medium": 0.2614, "Mtb glucose medium": "-4.023 and 4.024"}
{"smiles": "CN(CCNC(=O)Nc1nccs1)Cc1ccc(F)cc1", "Mtb cholesterol medium": 6.286, "Mtb glucose medium": 2.887}
{"smiles": "Cc1cc(CN(C)C(=O)c2ccc(F)cc2Br)no1", "Mtb cholesterol medium": -18.62, "Mtb glucose medium": -23}
{"smiles": "Cn1cccc1C(=O)N1CCC2(CCCN2S(C)(=O)=O)CC1", "Mtb cholesterol medium": -8.458, "Mtb glucose medium": -4.338}
{"smiles": "Cc1nc(CCC(=O)NC2CCC2)cc(C2CCNCC2)n1", "Mtb cholesterol medium": -16.08, "Mtb glucose medium": 10.47}
{"smiles": "CC(C)C(NC(=O)NCC1CC1)c1nnc2n1CCC2", "stereo": "stereo not drawn", "Mtb cholesterol medium": -18.29, "Mtb glucose medium": -11.24}
{"smiles": "Cn1ncc2c(=O)[nH]c(CN3CCc4sccc4C3)nc21", "Mtb cholesterol medium": 8.238, "Mtb glucose medium": "-35.69 and -2.032"}
{"smiles": "CN(C)S(=O)(=O)N1CCN(CC2CCOc3ccccc3C2)CC1", "stereo": "stereo not drawn", "Mtb cholesterol medium": -6.263, "Mtb glucose medium": "4.081 and -20.23"}
{"smiles": "C=Cn1cc(CN2CCC(c3ncc(Cl)cc3S(C)(=O)=O)CC2)c(C)n1", "Mtb cholesterol medium": "-7.023 and -7.416", "Mtb glucose medium": 3.482}
{"smiles": "CCNC(=O)C1CCN(c2nc(-c3ccco3)nc3c2CCNCC3)C1", "stereo": "stereo not drawn", "Mtb cholesterol medium": 2.355, "Mtb glucose medium": -0.3382}
{"smiles": "Cc1cc(CN(C)Cc2cc3c(cc2OC(F)F)OCO3)on1", "Mtb cholesterol medium": 3.273, "Mtb glucose medium": 28.82}
{"smiles": "N#Cc1cc(NC(=O)c2cc[nH]n2)ccc1N1CCC(O)CC1", "Mtb cholesterol medium": -6.764, "Mtb glucose medium": "0.2778 and -0.5282"}
{"smiles": "COc1cccc(S(=O)(=O)NC(=O)CC2CCCC2)c1", "Mtb cholesterol medium": 30.29, "Mtb glucose medium": 28.21}
{"smiles": "N#Cc1cccc(CN2C(=O)c3ccccc3CS2(=O)=O)c1", "Mtb cholesterol medium": 2.979, "Mtb glucose medium": -18.54}
{"smiles": "Cc1ccc(CN2CCC3(CCN(S(=O)(=O)c4ccccc4)C3)C2)o1", "stereo": "stereo not drawn", "Mtb cholesterol medium": 2.801, "Mtb glucose medium": 34.82}
{"smiles": "COCC1CN(CC2CC2)Cc2nccn2C1.O=C(O)C(F)(F)F", "stereo": "stereo not drawn", "Mtb cholesterol medium": 0.2302, "Mtb glucose medium": 6.654}
{"smiles": "CCCn1cc(NC(=O)Nc2ccc(F)c(C(=O)NC)c2)cn1", "Mtb cholesterol medium": 2.933, "Mtb glucose medium": -15.07}
{"smiles": "CN(C)c1ncccc1CNC(=O)CCNc1ncccn1", "Mtb cholesterol medium": -0.4071, "Mtb glucose medium": 25.7}
{"smiles": "Cn1cc(NC(=O)CNC(=O)N2CCN(c3ccc(Cl)cc3)CC2)cn1", "Mtb cholesterol medium": 0.4967, "Mtb glucose medium": "16.83 and 4.757"}
{"smiles": "CCc1ncc(CN2CCCC3(CCC(=O)N(CCC(C)C)C3)C2)cn1", "stereo": "stereo not drawn", "Mtb cholesterol medium": "-3.842 and -10.57", "Mtb glucose medium": -27.24}
{"smiles": "CC(C)OCCC(=O)N(C)c1ccc(F)c(Cl)c1", "Mtb cholesterol medium": -20.17, "Mtb glucose medium": 36.63}
{"smiles": "CC(=O)N[C@@H]1CN(C(=O)c2ccoc2)C[C@H]1c1ccc(C)cc1", "Mtb cholesterol medium": -2.509, "Mtb glucose medium": -5.499}
{"smiles": "O=C(Cc1ccc2c(c1)OCCO2)N1CCCC(n2cccn2)C1", "stereo": "stereo not drawn", "Mtb cholesterol medium": 16.43, "Mtb glucose medium": -0.954}
{"smiles": "CCOCc1cnc2n1CCN(C(=O)Cc1ccccn1)C2C.O=C(O)C(F)(F)F", "stereo": "stereo not drawn", "Mtb cholesterol medium": 7.257, "Mtb glucose medium": "13.48 and 41.57"}
{"smiles": "O=S(=O)(Cc1cccc(F)c1)NCC(O)Cc1ccccc1", "stereo": "stereo not drawn", "Mtb cholesterol medium": 17.23, "Mtb glucose medium": -5.417}
{"smiles": "CCCn1ncc(CN(Cc2cccnc2)Cc2cccs2)c1C", "Mtb cholesterol medium": 1.893, "Mtb glucose medium": -6.967}
{"smiles": "CN1CCCN(C(=O)c2cnsn2)c2cc(Cl)ccc21", "Mtb cholesterol medium": 4.898, "Mtb glucose medium": 12.14}
{"smiles": "COCc1cn(C[C@H]2CC3CCN2C[C@@H]3C(=O)Nc2ccccc2)nn1", "stereo": "stereo partly drawn", "Mtb cholesterol medium": 20.5, "Mtb glucose medium": "3.627 and -22.41"}
{"smiles": "Cc1ccccc1CNc1ccccc1OCC(=O)N1CCOCC1", "Mtb cholesterol medium": -14.61, "Mtb glucose medium": -17.44}
{"smiles": "CN(C)c1ncc2c(n1)CN(C1CCSCC1)C2=O", "Mtb cholesterol medium": -29.6, "Mtb glucose medium": -42.43}
{"smiles": "CCS(=O)(=O)N1Cc2c(Cn3cccc3)nn(C(C)C)c2C1", "Mtb cholesterol medium": -17.63, "Mtb glucose medium": "-17.9 and 10.27"}
{"smiles": "Cc1nnc(SCc2ccccn2)s1", "Mtb cholesterol medium": -6.518, "Mtb glucose medium": -4.862}
{"smiles": "COc1ccc2c(c1)CC(NCCCn1cc(C)cn1)CC2", "stereo": "stereo not drawn", "Mtb cholesterol medium": 15.1, "Mtb glucose medium": 8.566}
{"smiles": "CC(C)(C)c1csc(CCNC(=O)C(c2ccccc2)n2cnnn2)n1", "stereo": "stereo not drawn", "Mtb cholesterol medium": -8.481, "Mtb glucose medium": "4.551 and 7.41"}
{"smiles": "O=C(C1CCCc2[nH]ncc21)N1CCCC2(C1)OCCO2", "stereo": "stereo not drawn", "Mtb cholesterol medium": -21.76, "Mtb glucose medium": -31.88}

The first 2 entries again:

SMILES	Mtb cholesterol medium	Mtb glucose medium
COc1ccc(-c2nc(CN3CCc4c(ncn4C)C3)cs2)cc1	-4.219	25.74
COc1ccccc1CCNC(=O)NCC(=O)Nc1cccnc1	0.2614	-4.023 and 4.024

Source: ChEMBL document CHEMBL3988442, “University of Dundee, Small-Polar-MMV Screening Library” (2021).